# In PubChem BioAssay AID540256 (National Center for Advancing Translational Sciences (NCATS), 2011):
# Out of some 300,000 compounds screened, about 3,700 (1.2%) were called active. Inconclusive means that the source gave no clear call. Such entries were picked first, then a sample of the others. The call rests on the fitted dose curve; tested in HEK293 cells. Where the call is inconclusive, the potency comes from a doubtful curve fit.
# Assay: qHTS for Inhibitors of binding or entry into cells for Lassa Virus; further: nearly all actives have a fitted effect of over 50% in size
# Conditions: Lassa virus pseudotype entry inhibition, cell reporter; activity change, negative = inhibition: at 37.9 µM (top of the series) unless noted
# On the % scale 0 is the no-effect control and ±100 the full control effect; potency means the concentration at half of the fitted maximal effect.
Structure (SMILES),"activity change, negative = inhibition",Potency
Cc1ccc2nc(NCc3ccccc3)c(C=NCc3cccnc3)c(=O)n2c1,inactive: 5.81% [at 46.1 µM],–
Cc1cccc(NC(=O)CC2CCC2)c1,inactive: 1.03%,–
CCCNCC1C(Oc2ccc(Cl)cc2)C(=O)N1c1ccccc1C (centres undefined),–,"inconclusive: 29.1 µM [inhibitor, single point]"
COc1ccc(C(=O)Nc2cccc(C(=O)NCc3ccco3)c2)cc1,–,"inconclusive: 15.8 µM [inhibitor, partial curve, poor fit]"
Cc1cccc(NC(=O)CSc2nnc(CNC(=O)c3ccc(S(=O)(=O)N(C)C)cc3)n2-c2ccccc2)c1,–,"inconclusive: 8.2 µM [inhibitor, partial curve]"
Cc1ccc(C(=O)NC2CCc3ccccc3C2=O)cc1 (centres undefined),–,"inconclusive: 35.5 µM [inhibitor, single point]"
COc1ccc(NC(=O)c2sc(=S)[nH]c2N)cc1,–,"inconclusive: 11.2 µM [inhibitor, partial curve, poor fit]"
CCOc1cc2c(cc1C(C)(C)C)NC(=O)CS2,–,"inconclusive: 20 µM [inhibitor, single point]"
CCOc1ccccc1NC(=O)Nc1cccc(S(N)(=O)=O)c1,–,"inconclusive: 11.2 µM [inhibitor, partial curve, poor fit]"
Cn1c(Nc2ccc(Cl)cc2)cc(=O)n(C)c1=O,–,inactive
COc1ccc(-c2nc(Cn3c(SCc4cccc(C(F)(F)F)c4)nc4cccnc43)c(C)o2)cc1OC,inactive: -9.84% [at 46.1 µM],–
CC(NC(=S)Nc1cccc(C(F)(F)F)c1)C(C)(C)C (centres undefined),–,active: 10 µM
CCOc1ccc2oc(C(=O)Nc3cc(C)ccn3)c(C)c2c1,–,"inconclusive: 0.398 µM [activator, partial curve, poor fit]"
O=C(Nc1ccc(Cl)c([N+](=O)[O-])c1)c1ccncc1,–,"inconclusive: 2.82 µM [activator, single point]"
O=C(c1cc(-c2cccnc2)nc2ccc(Cl)cc12)N1CCN(S(=O)(=O)c2cccs2)CC1,–,"inconclusive: 6.31 µM [activator, single point]"
CC(CCc1ccccc1)NC(=O)CSc1n[nH]c(-c2ccc(F)cc2)n1 (centres undefined),inactive: -28.5% [at 46.1 µM],–
COc1ccc(C2(C#N)CCC(=O)N2c2ccccc2)cc1 (centres undefined),–,"inconclusive: 35.5 µM [activator, single point]"
COc1ccc(S(=O)(=O)Nc2cc3c(C(=O)OC(C)C)c(C)oc3c3ccccc23)cc1,–,"inconclusive: 5.01 µM [inhibitor, full curve, poor fit]"
Cc1ccc2[nH]c(C(=O)N3CCN(C(c4ccccc4)c4ccccc4)CC3)cc2c1,–,"inconclusive: 11.2 µM [inhibitor, partial curve, poor fit]"
CCOC(=O)Cn1cnc(-c2ccc([N+](=O)[O-])cc2)c1,–,"inconclusive: 0.501 µM [activator, full curve]"
COc1ccc(NC(=O)CN(C)C(=O)CSCc2c(C)noc2C)cc1,inactive: 7.32%,–
C=CCn1c(O)c(N=Nc2ccccc2C)c2ccccc21,inactive: -17% [at 46.1 µM],–
O=[N+]([O-])c1nc2ccccc2[nH]1,inactive: 21.6%,–

Structure (SMILES),"activity change, negative = inhibition",Potency
CN(C)CCn1c(=O)n(-c2cccc(Cl)c2)c(=O)c2c3c(sc21)CCCCC3,–,"inconclusive: 11.2 µM [inhibitor, partial curve]"
Nc1ccc(N2CCCCC2)cc1N1CCCCC1,–,"inconclusive: 35.5 µM [inhibitor, single point]"
CCOC(=O)c1nnn(-c2ccc(OC)cc2)c1N,–,"inconclusive: 23.1 µM [activator, partial curve]"
Cc1ccc(S(=O)(=O)NCc2nc3cccnc3n2Cc2ccccc2Cl)c(C)c1,–,"inconclusive: 3.16 µM [activator, partial curve, poor fit]"
CCN(C(=O)Oc1ccccc1)c1ccc(C(O)(C(=O)OC)C(F)(F)F)cc1 (centres undefined),–,"inconclusive: 12.6 µM [inhibitor, partial curve, poor fit]"
Cc1nn(-c2ccccc2)c(C)c1/C=N/NC(=O)c1cc(-c2ccc(Cl)s2)[nH]n1,–,active: 10.3 µM
CCCCNC(=O)Nc1cc(C(=O)OC)ccc1C,–,"inconclusive: 4.47 µM [activator, full curve, poor fit]"
O=C(Nc1ccccc1N1CCCC1)c1cccc(Cl)c1Cl,inactive: -8.85% [at 46.1 µM],–
CCCS(=O)(=O)c1nc(S(=O)(=O)c2ccc(C)cc2)c(NCCCN2CCOCC2)s1,inactive: -25.5%,–
CC(C)Cc1nn2c(=O)cc(COC(=O)c3ccccc3NC(=O)C3CCCCC3)nc2s1,–,"inconclusive: 3.16 µM [inhibitor, single point]"
Fc1ccc(-c2csc(=S)[nH]2)cc1,–,"inconclusive: 22.4 µM [activator, partial curve, poor fit]"
COc1ccc(/C=C(/NC(=O)c2ccc(OC)c(OC)c2)C(=O)NCCc2c[nH]c3ccccc23)cc1,inactive: -14.2%,–
CNc1c([N+](=O)[O-])cnn1-c1ccc(C)cc1,inactive: 4.18%,–
O=C(NC(Cc1ccccc1)c1nc2ccccc2[nH]1)c1cccc([N+](=O)[O-])c1 (centres undefined),–,"inconclusive: 35.5 µM [inhibitor, single point]"
COc1ccc(NC(=O)N(Cc2cc3cc(OC)ccc3[nH]c2=O)CC2CCCO2)cc1 (centres undefined),–,"inconclusive: 35.5 µM [inhibitor, single point]"
CCCOc1ccc(-c2c(C(=O)N/N=C/c3ccc(C)cc3)nnn2-c2nonc2N)cc1,–,"inconclusive: 35.5 µM [inhibitor, single point]"
COc1ccc(-c2nn(-c3ccccc3)cc2C2NC(=O)NC(C)=C2C(=O)OC(C)C)cc1Cl (centres undefined),–,"inconclusive: 35.5 µM [inhibitor, single point]"
O=C(c1ccco1)N(CCCN1CCOCC1)c1nc(-c2ccc(Cl)cc2)cs1,–,"inconclusive: 1.3 µM [inhibitor, partial curve, poor fit]"
O=C(Cn1cc(C(F)(F)F)cc(Cl)c1=O)NCc1ccc(F)cc1,–,"inconclusive: 0.251 µM [activator, full curve, poor fit]"
Cn1cc(C(=O)C(=O)N2CCCCC2)c2ccccc21,inactive: -1.98%,–
CCOC(=O)CC(NS(=O)(=O)Cc1ccccc1)c1ccc(C)cc1 (centres undefined),–,"inconclusive: 29.1 µM [activator, partial curve, poor fit]"
CN(c1ccc(C(=O)Nc2ccc(S(=O)(=O)N3CCCC3)cc2)cc1)S(C)(=O)=O,–,"inconclusive: 11.2 µM [inhibitor, partial curve, poor fit]"
CCCC(=O)NC(=S)Nc1ccc(N2CCOCC2)c(Cl)c1,inactive: 15.3%,–

# Compounds shown so far that contain an aryl thioether with sulfur outside any ring (3):
Structure (SMILES),"activity change, negative = inhibition",Potency
Cc1cccc(NC(=O)CSc2nnc(CNC(=O)c3ccc(S(=O)(=O)N(C)C)cc3)n2-c2ccccc2)c1,–,"inconclusive: 8.2 µM [inhibitor, partial curve]"
COc1ccc(-c2nc(Cn3c(SCc4cccc(C(F)(F)F)c4)nc4cccnc43)c(C)o2)cc1OC,inactive: -9.84% [at 46.1 µM],–
CC(CCc1ccccc1)NC(=O)CSc1n[nH]c(-c2ccc(F)cc2)n1 (centres undefined),inactive: -28.5% [at 46.1 µM],–

# (continued)

Structure (SMILES),"activity change, negative = inhibition",Potency
COc1ccc(C(=O)NC(=S)NC(C)(C)C)cc1Br,inactive: -4.68%,–
Cc1ccc(C(=O)Nc2cccc([N+](=O)[O-])c2)cc1S(=O)(=O)Nc1ccc(C(=O)O)cc1,inactive: 0.835%,–
c1ccc(C2CCC3(CC2)Oc2ccccc2C2CC(c4cccnc4)=NN23)cc1 (centres undefined),inactive: 11.4%,–
O=C(Nc1nccs1)c1ccc(CSc2nnnn2-c2ccccc2)cc1,inactive: -23.5%,–
COCCN1C(=O)CS/C1=C(/C#N)C(=O)NCc1ccco1,inactive: -6.97% [at 46.1 µM],–
O=C(Nc1ccccc1F)Nc1ccccc1OC(F)F,inactive: -10.8%,–
COC(=O)c1ccccc1NC(=O)c1ccc(NC(=O)C2CCCO2)cc1 (centres undefined),–,"inconclusive: 14.1 µM [inhibitor, single point]"
O=C(CN1CCCC1)Nc1nc(-c2ccc3c(c2)CCN3C(=O)c2ccccc2F)cs1,–,"inconclusive: 35.5 µM [inhibitor, single point]"
COc1ccc2[nH]cc(/C=C/C(=O)c3ccccc3)c2c1,–,"inconclusive: 0.282 µM [activator, full curve, poor fit]"
COc1cccc(Oc2cnc(N)nc2-c2ccc(OC)cc2O)c1,–,"inconclusive: 18.3 µM [inhibitor, partial curve]"
Cn1c(=O)oc2cc(S(=O)(=O)CCC(=O)NCCc3ccc(Cl)cc3)ccc21,–,"inconclusive: 35.5 µM [activator, single point]"
CC(C)(C)OC(=O)N1CCC(c2c(C(=O)N3CCCCC3)cnn2-c2ccccc2Cl)CC1,–,"inconclusive: 2.24 µM [inhibitor, full curve]"
CN(C)S(=O)(=O)c1cccc(N=C2SCCN2Cc2ccccc2)c1,–,"inconclusive: 10 µM [inhibitor, partial curve, poor fit]"
O=S(=O)(c1ccc(Cl)c(NC(=S)Nc2ccccc2N2CCOCC2)c1)N1CCOCC1,inactive: -3.41%,–
CCOC(=O)c1ccc2c(c1)n(CC)c(/C=C/Nc1ccccc1)[n+]2CC,–,"inconclusive: 29.1 µM [inhibitor, single point]"
COc1ccc(Cl)cc1Nc1nc(C)nc2c1nnn2Cc1ccccc1,inactive: -1.8% [at 46.1 µM],–
O=C(CC12CC3CC(CC(C3)C1)C2)NC(=S)NCc1ccccc1,–,"inconclusive: 22.4 µM [inhibitor, partial curve, poor fit]"
COc1ccc(C(=O)CC(c2ccccc2)C2CCCCC2=O)cc1 (centres undefined),–,"inconclusive: 23.1 µM [inhibitor, partial curve]"
O=C(NCCc1c[nH]c2ccccc12)OCCSS(=O)(=O)O,–,"inconclusive: 17.8 µM [inhibitor, single point]"
O=C(O)CC(NC(=O)C12CC3CC(CC(C3)C1)C2)c1ccc2c(c1)OCO2 (centres undefined),–,"inconclusive: 3.55 µM [inhibitor, single point]"
COc1ccc(S(=O)(=O)N(CC(=O)Nc2cc(Cl)ccc2C)Cc2ccccc2)cc1OC,–,"inconclusive: 11.2 µM [inhibitor, partial curve, poor fit]"
COc1ccc(-n2c(-c3ccccc3Br)nc3ccccc3c2=O)cc1,inactive: -20.4% [at 46.1 µM],–
CCOC(=O)c1cc(-c2ccc(F)cc2)n(CCC(=O)Nc2nc3ccc(OC)cc3s2)c1C,inactive: -10.4% [at 46.1 µM],–
